{
  "source": "PubChem BioAssay AID328",
  "about": "(DTP/NCI, 2004)",
  "test_system": "BDF1 mice, P388 leukemia ip, median survival T/C",
  "test": "NCI In Vivo Anticancer Drug Screen. Data for tumor model P388 Leukemia (intraperitoneal) in B6D2F1 (BDF1) mice",
  "details": "T/C endpoint: median survival time, higher T/C = longer survival",
  "method_in_brief": "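Survival ratio, drug arm over vehicle arm, in mice with a transplanted tumour.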",
  "key": {"[1]": {"details": "dose: 37.5 mg/kg/injection, schedule: Q04DX003 (ip), vehicle: saline with Tween-80"}, "[2]": {"details": "dose: 100.0 mg/kg/injection, schedule: Q04DX003 (ip), vehicle: saline"}},
  "note": "The list is a part of this screen's results and no random one: it is rich in T/C values a quarter to a half above the control, in often repeated tests (any T/C) and in doses without a T/C. Other doses and runs of a compound stand elsewhere. T/C gives the treated animals as a percentage of the vehicle group. Some doses have a count of surviving animals in place of a T/C: the source holds a T/C of zero for them, seemingly a mark for toxic or unscored doses. Some survivor counts are full or nearly so, which does not show that the dose was tolerated: survival well below the control is almost never listed, so the zero probably covers shortened survival too. Survivors were counted at the toxicity check, usually on the fifth day, unless a day is given; later deaths do not show. Schedule codes are those of the source, taken here to give the interval after Q, in days (D) or hours (H), and the number of doses after X. Some doses were run more than once; the values are given in rising order. Where survival is the endpoint, the PubChem record calls one and a half times the control and up active, and a quarter to a half above the control has no call in these data; cut-offs in other NCI protocols can differ.",
  "data": [
    {"smiles": "CN(C)N=Nc1ccc(NC(N)=O)cc1", "values": [
      {"measurement": "T/C", "setting": "dose: 50.0 mg/kg/injection, schedule: Q04DX003 (ip), vehicle: saline + Tween-80 + alcohol", "value": "144 % of control"},
      {"measurement": "survivor count", "setting": "dose: 100.0 mg/kg/injection, schedule: Q04DX003 (ip), vehicle: saline + Tween-80 + alcohol", "value": "5 of 6"},
      {"measurement": "survivor count", "setting": "dose: 200.0 mg/kg/injection, schedule: Q04DX003 (ip), vehicle: saline + Tween-80 + alcohol", "value": "0 of 6"}
    ]},
    {"smiles": "CC(C)C(=O)[O][Pb]([c]1ccccc1)([c]1ccccc1)[c]1ccccc1", "values": [
      {"measurement": "survivor count", "setting": "dose: 25.0 mg/kg/injection, schedule: Q01DX009 (ip), vehicle: saline with Tween-80", "value": "5 of 6"},
      {"measurement": "survivor count", "setting": "dose: 50.0 mg/kg/injection, schedule: Q01DX009 (ip), vehicle: saline with Tween-80", "value": "2 of 6"},
      {"measurement": "survivor count", "setting": "dose: 100.0 mg/kg/injection, schedule: Q01DX009 (ip), vehicle: saline with Tween-80", "value": "0 of 6"}
    ]},
    {"smiles": "O=c1cc(-c2ccc(OCc3ccccc3)c(-c3c(OCc4ccccc4)cc(OCc4ccccc4)c4c(=O)cc(-c5ccc(OCc6ccccc6)cc5)oc34)c2)oc2cc(OCc3ccccc3)cc(OCc3ccccc3)c12", "values": [
      {"measurement": "survivor count", "setting": "dose: 200.0 mg/kg/injection, schedule: Q01DX001 (ip), vehicle: saline with Tween-80", "value": "6 of 6"},
      {"measurement": "survivor count", "setting": "dose: 400.0 mg/kg/injection, schedule: Q01DX001 (ip), vehicle: saline with Tween-80", "value": "6 of 6"}
    ]},
    {"smiles": "CC1CCC(C)N1P(=O)(N1CC1)N1CC1", "note": "(stereo unspecified)", "values": [
      {"measurement": "T/C", "setting": "[1]", "value": "131 % of control"},
      {"measurement": "survivor count", "setting": "[1]", "value": "6 of 6"},
      {"measurement": "survivor count", "setting": "[2]", "value": "2 of 6"},
      {"measurement": "survivor count", "setting": "dose: 200.0 mg/kg/injection, schedule: Q04DX003 (ip), vehicle: saline", "value": "4 of 6"},
      {"measurement": "survivor count", "setting": "dose: 400.0 mg/kg/injection, schedule: Q04DX003 (ip), vehicle: saline", "value": "0 of 6"}
    ]},
    {"smiles": "C(=C(c1ccccc1)c1ccccc1)c1ccccn1", "values": [
      {"measurement": "survivor count", "setting": "dose: 100.0 mg/kg/injection, schedule: Q04DX003 (ip), vehicle: saline with Tween-80", "value": "6 of 6"},
      {"measurement": "survivor count", "setting": "dose: 200.0 mg/kg/injection, schedule: Q04DX003 (ip), vehicle: saline with Tween-80", "value": "6 of 6"},
      {"measurement": "survivor count", "setting": "dose: 400.0 mg/kg/injection, schedule: Q04DX003 (ip), vehicle: saline with Tween-80", "value": "6 of 6"}
    ]},
    {"smiles": "COc1cc([N+](=O)[O-])c(C)cc1NC(=O)c1ccc(OC)c(OC)c1", "values": [
      {"measurement": "survivor count", "setting": "dose: 12.5 mg/kg/injection, schedule: Q01DX009 (ip), vehicle: saline", "value": "6 of 6"}
    ]},
    {"smiles": "C/C(=C\\Br)CO", "values": [
      {"measurement": "survivor count", "setting": "dose: 400.0 mg/kg/injection, schedule: Q01DX009 (ip), vehicle: saline", "value": "0 of 6"}
    ]},
    {"smiles": "Cc1nc2ccc(O)cc2cc1CBr", "values": [
      {"measurement": "T/C", "setting": "dose: 25.0 mg/kg/injection, schedule: Q01DX009 (ip), vehicle: saline", "value": "130 % of control"},
      {"measurement": "survivor count", "setting": "dose: 50.0 mg/kg/injection, schedule: Q01DX009 (ip), vehicle: saline", "value": "2 of 6 and 3 of 6"},
      {"measurement": "survivor count", "setting": "[2]", "value": "3 of 6"}
    ]}
  ]
}
